Experimental data: PubChem BioAssay AID652243 (Drosophila RNAi Screening Center, 2013)
The screen tested about 24,000 reagents; this is an unselected part of those with a known target gene and a result. Over the whole deposit, 246 (1%) were called active. 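Plates not normalised; calls are printed but the firefly/Renilla ratio behind them is not deposited; fold cut for lowering reported inconsistently.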 The raw values are shown without normalisation. Reagents against one gene are numbered here. Names joined by + are all predicted targets of the reagent. Reagent sequences are not shown. Not given: the amount of reagent.

Assay: 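Knock-downs that decrease or increase androgen receptor reporter signal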 (primary screen)
Cell system: Drosophila S2R+ cells
Reagents: long dsRNA against Drosophila genes
Time to read-out: 72 h (48 h, then 24 h hormone)
Challenge: synthetic androgen R1881 at 10 nM for 24 h
Detection: 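Per-well raw luminescence of the androgen-driven firefly reporter and of the Renilla control, two replicates each, without normalisation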
Reading the numbers: firefly reporter light: higher = more light from androgen-responsive reporter; Renilla control light: higher = more constitutive control signal (cell number, transfection)
Call rule: 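Across duplicate plates, a knock-down whose log firefly/Renilla ratio shifted a set fold down or up from the GFP/LacZ control mean was a hit; the downward cut appears as both 1.5 and 3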
Calls: active = hit: reporter lowered or raised; inactive = no hit

| gene | dsRNA no. | firefly reporter light, replicate 1 | firefly reporter light, replicate 2 | Renilla control light, replicate 1 | Renilla control light, replicate 2 | activity call |
| --- | --- | --- | --- | --- | --- | --- |
| CG34049 | 1 | 7.52e5 | 6.79e5 | 2.20e6 | 1.92e6 | inactive |
| ND-B8 (NADH dehydrogenase (ubiquinone) B8 subunit) | 1 | 1.50e5 | 1.06e5 | 1.11e6 | 7.26e5 | inactive |
| muskelin | 1 | 2.11e5 | 1.07e5 | 1.81e6 | 1.64e6 | active |
| Eig71Eb (Ecdysone-induced gene 71Eb) | 1 | 3.22e5 | 2.23e5 | 3.27e6 | 2.02e6 | inactive |
| ds (dachsous) | 1 | 57221 | 47121 | 5.79e5 | 4.65e5 | inactive |
| et (eye transformer) | 1 | 1.43e5 | 1.67e5 | 4.62e5 | 5.08e5 | inactive |
| t-Grip128 (testis-specific gamma-tubulin ring protein 128) | 1 | 2.48e5 | 73433 | 5.13e5 | 2.43e5 | inactive |
| t-Grip128 (testis-specific gamma-tubulin ring protein 128) | 2 | 3.08e5 | 2.72e5 | 8.18e5 | 6.00e5 | inactive |
| t-Grip128 (testis-specific gamma-tubulin ring protein 128) | 3 | 8.65e5 | 3.45e5 | 1.77e6 | 6.82e5 | inactive |
| Lsp1gamma (Larval serum protein 1 gamma) | 1 | 9.34e5 | 1.22e6 | 1.16e6 | 1.09e6 | inactive |
| Lsp1gamma (Larval serum protein 1 gamma) | 2 | 4.34e5 | 3.70e5 | 4.39e5 | 2.62e5 | inactive |
| kl-2 (male fertility factor kl2) | 1 | 2.01e5 | 2.67e5 | 5.99e5 | 5.09e5 | inactive |
| kl-2 (male fertility factor kl2) | 2 | 1.02e6 | 8.37e5 | 2.23e6 | 2.16e6 | inactive |
| Dcp-1 (Death caspase-1) | 1 | 7.60e5 | 7.23e5 | 2.01e6 | 1.82e6 | inactive |
| CG42507 + Trl | 1 | 1.76e5 | 2.80e5 | 5.36e5 | 5.77e5 | inactive |
| CG42507 + Trl | 2 | 3.85e5 | 2.14e5 | 7.06e5 | 4.19e5 | inactive |
| jtb (jetboil) | 1 | 68976 | 70117 | 1.14e6 | 1.14e6 | inactive |
| Klp61F (Kinesin-like protein at 61F) | 1 | 46578 | 55857 | 3.90e5 | 3.76e5 | inactive |
| Klp61F (Kinesin-like protein at 61F) | 2 | 3.06e5 | 3.34e5 | 9.03e5 | 7.89e5 | inactive |
| CG8414 | 1 | 53847 | 42989 | 6.54e5 | 6.54e5 | inactive |
| asRNA:CR30267 + CG42260 | 1 | 1.73e5 | 2.16e5 | 4.41e5 | 6.47e5 | inactive |
| Cpr47Ef (Cuticular protein 47Ef) | 1 | 1.76e5 | 1.64e5 | 1.72e6 | 1.87e6 | inactive |
| Cpr47Ef (Cuticular protein 47Ef) | 2 | 4.40e5 | 6.86e5 | 9.61e5 | 1.88e6 | inactive |
| Cpr47Ef (Cuticular protein 47Ef) | 3 | 7.85e5 | 5.58e5 | 6.45e5 | 6.07e5 | inactive |
| Cpr47Ef (Cuticular protein 47Ef) | 4 | 7.82e5 | 9.17e5 | 9.77e5 | 1.29e6 | inactive |
| Desi (Desiccate) | 1 | 77287 | 1.18e5 | 1.69e6 | 1.59e6 | inactive |
| Ogg1 (8-oxoguanine DNA glycosylase) | 1 | 74533 | 1.20e5 | 6.54e5 | 5.92e5 | inactive |
| lva (lava lamp) | 1 | 1.33e5 | 82827 | 1.36e6 | 6.07e5 | inactive |
| lva (lava lamp) | 2 | 1.87e5 | 2.25e5 | 4.99e5 | 5.74e5 | inactive |
| Obp99d (Odorant-binding protein 99d) | 1 | 1.20e5 | 81251 | 1.18e6 | 2.09e6 | inactive |
| Synd (Syndapin) | 1 | 2.62e5 | 2.35e5 | 2.87e6 | 2.88e6 | inactive |
| IntS10 (Integrator 10) | 1 | 78045 | 87486 | 1.12e6 | 1.33e6 | inactive |
| Parg (Poly(ADP-ribose) glycohydrolase) | 1 | 1.49e5 | 1.94e5 | 1.06e6 | 6.89e5 | inactive |
| CG43386 | 1 | 2.08e5 | 4.00e5 | 1.78e6 | 3.17e6 | inactive |
| CG16853 | 1 | 1.60e5 | 1.79e5 | 1.08e6 | 1.16e6 | inactive |
| RabX1 | 1 | 1.85e5 | 1.93e5 | 1.79e6 | 1.38e6 | inactive |
| Takl2 (Tak1-like 2) | 1 | 1.46e5 | 2.09e5 | 2.77e6 | 2.64e6 | inactive |
| Takl2 (Tak1-like 2) | 2 | – | – | – | – | inactive |
| CG34398 | 1 | 4.78e5 | 8.45e5 | 1.14e6 | 2.19e6 | inactive |
| CG34398 | 2 | 7.15e5 | 5.37e5 | 1.82e6 | 1.74e6 | inactive |
| CG34398 | 3 | 1.73e5 | 1.75e5 | 1.47e6 | 1.16e6 | inactive |
| CG34398 | 4 | 7.56e5 | 6.05e5 | 9.27e5 | 1.00e6 | inactive |
| CG43331 | 1 | 3.16e5 | 2.22e5 | 2.76e6 | 2.54e6 | inactive |
| CG8476 | 1 | 55142 | 76334 | 1.19e6 | 1.76e6 | inactive |
| CG8476 | 2 | 9.96e5 | 4.57e5 | 3.07e6 | 1.25e6 | inactive |
| CG45105 | 1 | 1.31e5 | 94196 | 1.17e6 | 1.36e6 | inactive |
| CG45105 | 2 | 3.03e5 | 2.99e5 | 8.46e5 | 7.91e5 | inactive |
| CG32213 + CG12519 + 825-Oak + 1 more | 1 | 2.33e5 | 1.21e5 | 5.07e5 | 2.08e5 | inactive |
| Arf4 (ADP ribosylation factor 4) | 1 | 1.95e5 | 2.47e5 | 3.62e6 | 2.93e6 | inactive |
| Arf4 (ADP ribosylation factor 4) | 2 | 4.88e5 | 4.20e5 | 1.30e6 | 9.83e5 | inactive |
| Phb1 (Prohibitin 1) | 1 | 1.10e6 | 7.96e5 | 1.91e6 | 1.26e6 | inactive |
| Phb1 (Prohibitin 1) | 2 | 2.81e5 | 2.87e5 | 7.07e5 | 8.03e5 | inactive |
| CG4546 | 1 | 1.13e5 | 1.45e5 | 1.63e6 | 2.33e6 | inactive |
| CG4546 | 2 | 6.11e5 | 7.97e5 | 1.74e6 | 1.74e6 | inactive |
| l(3)76BDm (lethal (3) 76BDm) | 1 | 31578 | 29304 | 3.16e5 | 2.65e5 | inactive |
| Kdm3 (Lysine demethylase 3) | 1 | 1.09e5 | 1.52e5 | 1.55e6 | 2.37e6 | inactive |
| Kdm3 (Lysine demethylase 3) | 2 | 6.49e5 | 5.24e5 | 1.72e6 | 1.59e6 | inactive |
| CG6073 | 1 | 5.44e5 | 6.24e5 | 4.78e6 | 2.60e6 | inactive |
| CG6073 | 2 | 5.07e5 | 4.99e5 | 1.38e6 | 1.15e6 | inactive |
| CG6073 | 3 | 4.45e5 | 4.86e5 | 1.25e6 | 1.15e6 | inactive |
